Some of the results follow. Small differences around the control level are noise.

Chains of the proteins cited; added tags and fusions are not shown. Lines headed by an entry give the natural chain unless they say otherwise; changes in a name come on top.
UniProt O60610, whole entry: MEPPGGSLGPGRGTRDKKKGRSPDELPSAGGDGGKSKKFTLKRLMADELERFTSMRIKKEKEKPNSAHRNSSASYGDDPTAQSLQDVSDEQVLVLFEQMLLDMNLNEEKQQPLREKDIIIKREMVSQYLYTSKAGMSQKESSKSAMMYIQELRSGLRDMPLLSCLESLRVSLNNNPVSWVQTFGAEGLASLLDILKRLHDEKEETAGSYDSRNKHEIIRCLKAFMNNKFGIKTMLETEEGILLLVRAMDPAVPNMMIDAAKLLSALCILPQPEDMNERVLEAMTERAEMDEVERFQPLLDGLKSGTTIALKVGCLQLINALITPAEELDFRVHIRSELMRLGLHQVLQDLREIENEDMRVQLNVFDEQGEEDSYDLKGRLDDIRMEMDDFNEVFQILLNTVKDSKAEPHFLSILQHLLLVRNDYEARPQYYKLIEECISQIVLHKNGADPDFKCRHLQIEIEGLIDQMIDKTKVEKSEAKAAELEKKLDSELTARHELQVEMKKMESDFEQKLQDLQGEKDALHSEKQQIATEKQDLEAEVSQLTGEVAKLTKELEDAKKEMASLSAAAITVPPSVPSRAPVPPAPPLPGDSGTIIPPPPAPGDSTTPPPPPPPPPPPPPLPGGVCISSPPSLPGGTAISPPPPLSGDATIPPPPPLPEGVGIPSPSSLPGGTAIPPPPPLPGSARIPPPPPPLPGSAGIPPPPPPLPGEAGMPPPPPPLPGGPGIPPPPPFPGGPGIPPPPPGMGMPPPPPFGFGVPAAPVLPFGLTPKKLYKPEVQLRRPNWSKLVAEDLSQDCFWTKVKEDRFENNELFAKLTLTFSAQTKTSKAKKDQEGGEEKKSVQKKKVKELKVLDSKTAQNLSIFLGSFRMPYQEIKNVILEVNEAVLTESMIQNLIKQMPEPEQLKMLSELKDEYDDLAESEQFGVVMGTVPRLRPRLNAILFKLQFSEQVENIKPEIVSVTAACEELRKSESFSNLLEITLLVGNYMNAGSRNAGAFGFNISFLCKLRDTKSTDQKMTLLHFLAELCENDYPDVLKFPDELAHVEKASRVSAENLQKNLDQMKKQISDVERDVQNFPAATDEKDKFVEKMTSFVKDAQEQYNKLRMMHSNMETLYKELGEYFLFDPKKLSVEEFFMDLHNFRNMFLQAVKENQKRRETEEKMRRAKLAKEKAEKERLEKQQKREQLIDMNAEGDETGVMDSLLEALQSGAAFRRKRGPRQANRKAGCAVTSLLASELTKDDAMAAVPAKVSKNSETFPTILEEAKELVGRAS
UniProt O60512: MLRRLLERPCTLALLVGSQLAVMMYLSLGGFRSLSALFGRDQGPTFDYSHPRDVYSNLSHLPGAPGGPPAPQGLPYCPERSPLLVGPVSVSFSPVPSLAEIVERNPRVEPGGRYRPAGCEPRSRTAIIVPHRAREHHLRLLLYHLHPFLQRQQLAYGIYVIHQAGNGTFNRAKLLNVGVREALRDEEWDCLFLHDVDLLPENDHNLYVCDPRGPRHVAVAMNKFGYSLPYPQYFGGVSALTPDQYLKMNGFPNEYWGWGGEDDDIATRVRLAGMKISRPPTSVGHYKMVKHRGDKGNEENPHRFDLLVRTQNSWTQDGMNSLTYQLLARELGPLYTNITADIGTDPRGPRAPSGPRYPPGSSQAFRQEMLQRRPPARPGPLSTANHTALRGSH
UniProt O60294: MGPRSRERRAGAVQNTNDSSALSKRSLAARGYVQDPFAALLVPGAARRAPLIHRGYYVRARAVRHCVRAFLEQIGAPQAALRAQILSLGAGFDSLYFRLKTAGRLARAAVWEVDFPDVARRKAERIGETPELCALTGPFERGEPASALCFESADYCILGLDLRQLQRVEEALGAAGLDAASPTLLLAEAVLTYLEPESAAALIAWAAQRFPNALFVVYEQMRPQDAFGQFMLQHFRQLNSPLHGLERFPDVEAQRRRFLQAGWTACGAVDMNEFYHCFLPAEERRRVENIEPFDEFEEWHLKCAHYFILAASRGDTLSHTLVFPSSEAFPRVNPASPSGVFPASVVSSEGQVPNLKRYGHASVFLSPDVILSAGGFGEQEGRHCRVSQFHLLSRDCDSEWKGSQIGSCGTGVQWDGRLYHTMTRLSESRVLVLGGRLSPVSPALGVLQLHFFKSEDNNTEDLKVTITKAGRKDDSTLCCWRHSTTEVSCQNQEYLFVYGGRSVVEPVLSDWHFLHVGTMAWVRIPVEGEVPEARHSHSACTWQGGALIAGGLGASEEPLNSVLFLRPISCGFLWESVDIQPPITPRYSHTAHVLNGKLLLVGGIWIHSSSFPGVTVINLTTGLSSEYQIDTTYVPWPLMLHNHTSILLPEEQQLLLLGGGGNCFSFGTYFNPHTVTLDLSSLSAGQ
UniProt O75323: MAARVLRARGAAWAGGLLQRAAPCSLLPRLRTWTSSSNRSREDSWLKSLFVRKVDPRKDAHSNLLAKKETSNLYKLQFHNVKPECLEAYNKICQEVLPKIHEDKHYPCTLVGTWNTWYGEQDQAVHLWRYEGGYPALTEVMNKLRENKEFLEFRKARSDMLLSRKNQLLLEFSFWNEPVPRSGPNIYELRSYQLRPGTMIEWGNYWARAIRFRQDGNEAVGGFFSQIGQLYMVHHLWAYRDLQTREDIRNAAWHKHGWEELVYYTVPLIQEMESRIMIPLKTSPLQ
UniProt O60826, whole entry: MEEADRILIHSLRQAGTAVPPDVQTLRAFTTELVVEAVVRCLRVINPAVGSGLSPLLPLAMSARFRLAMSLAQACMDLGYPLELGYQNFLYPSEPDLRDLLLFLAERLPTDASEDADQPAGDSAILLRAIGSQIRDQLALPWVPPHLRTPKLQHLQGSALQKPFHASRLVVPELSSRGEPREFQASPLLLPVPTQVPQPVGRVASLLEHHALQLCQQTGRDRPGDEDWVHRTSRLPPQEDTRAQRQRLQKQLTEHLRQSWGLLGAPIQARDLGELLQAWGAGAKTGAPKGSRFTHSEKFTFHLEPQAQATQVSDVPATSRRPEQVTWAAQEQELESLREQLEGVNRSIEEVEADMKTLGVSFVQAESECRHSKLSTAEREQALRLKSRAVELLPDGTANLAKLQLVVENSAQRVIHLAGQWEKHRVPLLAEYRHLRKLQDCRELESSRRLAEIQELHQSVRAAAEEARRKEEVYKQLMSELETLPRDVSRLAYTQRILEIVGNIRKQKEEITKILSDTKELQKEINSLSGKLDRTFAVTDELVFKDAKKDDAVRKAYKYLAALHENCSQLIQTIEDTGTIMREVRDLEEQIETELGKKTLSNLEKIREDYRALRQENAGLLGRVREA
UniProt O75151: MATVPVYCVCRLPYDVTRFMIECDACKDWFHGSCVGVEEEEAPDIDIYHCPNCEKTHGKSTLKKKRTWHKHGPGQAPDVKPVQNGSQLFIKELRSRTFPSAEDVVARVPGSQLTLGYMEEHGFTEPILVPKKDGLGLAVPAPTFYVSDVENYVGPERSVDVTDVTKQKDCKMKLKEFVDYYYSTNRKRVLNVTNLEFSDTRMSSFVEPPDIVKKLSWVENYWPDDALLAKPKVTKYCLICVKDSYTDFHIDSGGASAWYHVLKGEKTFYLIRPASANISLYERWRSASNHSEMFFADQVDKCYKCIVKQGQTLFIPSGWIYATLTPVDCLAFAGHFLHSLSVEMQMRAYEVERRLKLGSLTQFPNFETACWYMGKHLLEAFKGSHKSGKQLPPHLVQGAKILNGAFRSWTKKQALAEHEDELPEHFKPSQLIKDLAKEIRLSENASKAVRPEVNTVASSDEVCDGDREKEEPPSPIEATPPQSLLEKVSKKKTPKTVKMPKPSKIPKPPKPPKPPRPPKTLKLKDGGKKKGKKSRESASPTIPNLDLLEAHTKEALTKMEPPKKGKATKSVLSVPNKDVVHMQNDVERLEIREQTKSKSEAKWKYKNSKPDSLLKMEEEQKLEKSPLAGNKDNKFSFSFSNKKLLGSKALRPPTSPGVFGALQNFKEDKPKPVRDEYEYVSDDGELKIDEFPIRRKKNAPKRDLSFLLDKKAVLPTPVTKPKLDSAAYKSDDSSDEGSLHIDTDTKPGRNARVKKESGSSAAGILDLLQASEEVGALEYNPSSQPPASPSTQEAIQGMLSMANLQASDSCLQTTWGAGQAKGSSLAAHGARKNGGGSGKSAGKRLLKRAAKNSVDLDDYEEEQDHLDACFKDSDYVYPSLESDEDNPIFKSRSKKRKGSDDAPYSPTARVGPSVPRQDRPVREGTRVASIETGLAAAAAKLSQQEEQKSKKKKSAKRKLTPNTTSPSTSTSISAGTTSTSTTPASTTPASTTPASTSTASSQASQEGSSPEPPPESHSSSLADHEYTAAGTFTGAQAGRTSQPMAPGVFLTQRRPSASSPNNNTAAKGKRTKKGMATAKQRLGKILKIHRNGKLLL
UniProt O75362: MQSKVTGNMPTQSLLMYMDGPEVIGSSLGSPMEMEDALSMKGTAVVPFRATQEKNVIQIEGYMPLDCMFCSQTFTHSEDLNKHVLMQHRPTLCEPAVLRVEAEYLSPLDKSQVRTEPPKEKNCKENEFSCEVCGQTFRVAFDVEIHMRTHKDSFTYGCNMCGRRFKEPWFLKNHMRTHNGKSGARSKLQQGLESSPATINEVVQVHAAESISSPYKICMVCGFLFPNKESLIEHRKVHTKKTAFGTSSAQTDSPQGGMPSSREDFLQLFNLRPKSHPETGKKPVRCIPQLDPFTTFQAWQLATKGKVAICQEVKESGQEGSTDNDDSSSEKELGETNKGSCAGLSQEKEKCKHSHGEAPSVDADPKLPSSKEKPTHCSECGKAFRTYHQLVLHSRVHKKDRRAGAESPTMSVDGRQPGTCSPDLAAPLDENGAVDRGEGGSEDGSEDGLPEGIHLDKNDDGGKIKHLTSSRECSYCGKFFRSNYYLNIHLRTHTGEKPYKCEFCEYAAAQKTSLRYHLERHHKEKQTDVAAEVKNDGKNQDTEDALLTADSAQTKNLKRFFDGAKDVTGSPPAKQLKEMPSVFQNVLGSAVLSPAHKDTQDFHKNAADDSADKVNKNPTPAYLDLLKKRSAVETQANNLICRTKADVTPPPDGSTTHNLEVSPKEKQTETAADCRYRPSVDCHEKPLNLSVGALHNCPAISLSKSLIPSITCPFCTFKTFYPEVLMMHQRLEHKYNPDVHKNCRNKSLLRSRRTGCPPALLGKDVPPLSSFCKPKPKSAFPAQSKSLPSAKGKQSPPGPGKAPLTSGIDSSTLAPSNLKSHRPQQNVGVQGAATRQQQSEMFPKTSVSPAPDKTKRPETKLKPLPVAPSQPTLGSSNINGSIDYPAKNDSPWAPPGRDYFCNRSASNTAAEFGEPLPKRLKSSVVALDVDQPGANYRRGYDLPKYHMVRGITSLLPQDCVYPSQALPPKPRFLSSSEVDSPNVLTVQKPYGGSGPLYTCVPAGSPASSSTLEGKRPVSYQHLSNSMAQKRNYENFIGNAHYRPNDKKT
UniProt O43182: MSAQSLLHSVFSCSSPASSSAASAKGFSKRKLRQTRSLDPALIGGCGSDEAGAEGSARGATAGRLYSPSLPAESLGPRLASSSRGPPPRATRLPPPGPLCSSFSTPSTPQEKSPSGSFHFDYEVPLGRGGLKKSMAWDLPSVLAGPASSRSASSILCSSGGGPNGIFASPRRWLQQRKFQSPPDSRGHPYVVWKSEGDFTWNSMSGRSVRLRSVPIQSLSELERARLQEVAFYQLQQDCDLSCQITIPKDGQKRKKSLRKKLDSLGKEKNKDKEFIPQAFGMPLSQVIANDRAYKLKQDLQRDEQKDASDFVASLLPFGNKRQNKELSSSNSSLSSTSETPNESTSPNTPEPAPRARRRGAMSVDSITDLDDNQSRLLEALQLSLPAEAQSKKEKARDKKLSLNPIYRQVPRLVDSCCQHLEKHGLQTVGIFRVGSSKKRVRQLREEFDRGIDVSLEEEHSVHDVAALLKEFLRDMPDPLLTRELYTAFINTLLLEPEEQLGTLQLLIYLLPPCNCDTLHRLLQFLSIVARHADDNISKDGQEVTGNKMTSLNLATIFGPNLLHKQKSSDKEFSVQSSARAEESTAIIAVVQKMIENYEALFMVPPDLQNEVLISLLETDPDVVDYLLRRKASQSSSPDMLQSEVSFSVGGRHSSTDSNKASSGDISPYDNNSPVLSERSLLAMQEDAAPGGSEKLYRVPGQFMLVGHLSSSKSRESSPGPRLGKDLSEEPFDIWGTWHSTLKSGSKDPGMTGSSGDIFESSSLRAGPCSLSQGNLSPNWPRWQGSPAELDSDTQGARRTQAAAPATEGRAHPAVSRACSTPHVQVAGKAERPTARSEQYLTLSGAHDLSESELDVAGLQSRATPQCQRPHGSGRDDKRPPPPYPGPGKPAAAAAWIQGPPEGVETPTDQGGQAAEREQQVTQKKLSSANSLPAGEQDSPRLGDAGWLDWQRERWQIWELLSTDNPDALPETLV

Compound in this test: CN[C@@H]1C[C@H]2O[C@@](C)([C@@H]1OC)n1c3ccccc3c3c4c(c5c6ccccc6n2c5c31)C(=O)NC4 [staurosporine]
Briefly: log2 fold change of tryptic peptide abundance, ligand vs vehicle (limited proteolysis) (log2 ratio); higher = more trypsin-susceptible (destabilized). Conditions: ligand concentration: 20 uM; sample: K562 cleared lysate; digestion: 4 min, 22 C (HT-PELSA RT4min, Orbitrap Astral).
As to “UniProt O60610 (peptide sequence: NKHEIIR, peptide start residue: 213)”, the log2 fold change amounted to 0.566.
Take “B4GALT3 (peptide sequence: LLLYHLHPFLQR, peptide start residue: 140) (UniProt O60512)”: the log2 fold change worked out at 0.307.
“LCMT2 (peptide sequence: AAVWEVDFPDVARR, peptide start residue: 108) (UniProt O60294)”: the log2 fold change is -0.649.
In the case of “UniProt O75323 (peptide sequence: KDAHSNLLAK, peptide start residue: 58)” it was 0.632.
On to “CCDC22 (peptide sequence: DQLALPWVPPHLR, peptide start residue: 136) (UniProt O60826)”, for which the log2 fold change is 0.278.
“PHF2 (peptide sequence: VASIETGLAAAAAK, peptide start residue: 902) (UniProt O75151)”: the log2 fold change was -0.0457.
In the case of “ZNF217 (peptide sequence: CKHSHGEAPSVDADPKLPSSK, peptide start residue: 351) (UniProt O75362)” it was -0.872; in that of “ARHGAP6 (peptide sequence: MTSLNLATIFGPNLLHK, peptide start residue: 549) (UniProt O43182)”, -0.11.
